Experimental findings from patent US20030032774A1, “Novel opioid peptides for the treatment of pain” (priority 1994, published 2003) are described below.

The chains behind the UniProt entries cited, without tags or fusion partners. Where a name states a change or a piece, a line headed by the entry shows the natural chain unless it says otherwise.
UniProt P33533, whole entry: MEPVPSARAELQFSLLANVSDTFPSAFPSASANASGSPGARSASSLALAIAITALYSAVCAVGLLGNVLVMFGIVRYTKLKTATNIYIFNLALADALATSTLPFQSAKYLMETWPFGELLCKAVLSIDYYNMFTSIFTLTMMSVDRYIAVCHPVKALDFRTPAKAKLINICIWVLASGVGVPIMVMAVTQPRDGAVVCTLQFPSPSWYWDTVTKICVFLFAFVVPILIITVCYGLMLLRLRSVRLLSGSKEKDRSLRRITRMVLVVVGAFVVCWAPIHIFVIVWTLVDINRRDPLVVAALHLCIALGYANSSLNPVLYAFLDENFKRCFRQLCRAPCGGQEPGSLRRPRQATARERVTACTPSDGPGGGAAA
UniProt P97266, whole entry, looked up: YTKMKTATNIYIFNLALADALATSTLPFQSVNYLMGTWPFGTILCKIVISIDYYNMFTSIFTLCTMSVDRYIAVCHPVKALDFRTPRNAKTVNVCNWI
UniProt P33535, whole entry: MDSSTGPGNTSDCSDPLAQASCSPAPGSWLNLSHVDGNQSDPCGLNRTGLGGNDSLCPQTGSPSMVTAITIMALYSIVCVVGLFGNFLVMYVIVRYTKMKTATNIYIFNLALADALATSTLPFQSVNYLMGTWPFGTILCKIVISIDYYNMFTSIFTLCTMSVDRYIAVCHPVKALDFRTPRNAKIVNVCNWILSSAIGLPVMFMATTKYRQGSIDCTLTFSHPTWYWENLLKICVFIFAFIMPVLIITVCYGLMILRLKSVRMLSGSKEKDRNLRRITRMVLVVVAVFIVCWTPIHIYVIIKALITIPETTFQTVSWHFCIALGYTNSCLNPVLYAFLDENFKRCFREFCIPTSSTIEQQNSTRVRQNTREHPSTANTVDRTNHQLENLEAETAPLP

The target of data set [1] is δ receptor (Rattus norvegicus, UniProt P33533). In words: biochemical. The method, then:
(§1) PBQ (phenyl-ρ-benzoquinone) induced writhing in mice is an assessment of both central and peripheral analgesia (see Sigmund, et al., Proc. Soc. Exp. Biol. Med. 95:729 (1957)). Central analgesia is determined by the inhibition of a hot-plate response in mice (see, Wolfe, et al., J. Pharmacol. Exp. Ther. 80:300 (1944)). Assays measuring opioid receptor binding affinities for μ and δ receptors as well as the GPI assay were determined through experimental protocol set out in Schiller et al. (Biophys. Res. Commun. 85:1322 (1975)). The references by Sigmund, et al., Wolfe, et al., and Schiller, et al. are each hereby incorporated by reference.
Male Sprague-Dawley rats weighing between 350-450 g were sacrificed by inhalation of CO2. […] The pellets were re-suspended in approximately 6 ml/brain of ice-cold Tris buffer 50 mM pH 7.4 and stored at −78° C. until ready for use. Protein quantification of the brain homogenate was conducted according to protein assay kit purchased (Bio-Rad).
(^3H)-DAMGO and (^3H)-DAGLE were used as radioligands for the μ and δ receptors, respectively. […] Nonspecific binding was determined using a 500 fold excess of unlabeled ligand in the presence of tracer and membranes. […] The filters were dried and radioactivity was counted in a 24 well microplate in the presence of 500 μl scintillant per well. Radioactivity was measured using a Wallace 1450 Microbeta counter. […]

Data set [2] deals with μ receptors (Cavia porcellus, UniProt P97266). In words: Guinea Pig Ileum (GPI) assay, longitudinal muscle preparation. The method, then:
The activity of the peptide compounds on μ receptors was determined using the Guinea Pig Ileum (GPI) assay (longitudinal muscle preparation) according to the procedures described in Schiller et al., Biophys. Res. Commun. 85:1322 (1975).

Data set [3] has as its target T1, μ receptor (Rattus norvegicus, UniProt P33535).
T1 construct: the brains (minus the cerebellum) were removed, placed in ice-cold saline solution, and then homogenized; from tissue; host or cells: rat brain (minus cerebellum) membranes
In words: Radioligand binding assay, μ opioid receptor ((3H)-DAMGO, brain membranes). On the procedure: as §1
Male Sprague-Dawley rats weighing between 350-450 g were sacrificed by inhalation of CO2. The rats were decapitated and the brains (minus the cerebellum) were removed, placed in ice-cold saline solution, and then homogenized in ice-cold 50 mM Tris buffer pH 7.4 (10 ml/brain). Membranes were centrifuged at 14000 rpm for 30 min. at 4° C. The pellets were re-suspended in approximately 6 ml/brain of ice-cold Tris buffer 50 mM pH 7.4 and stored at −78° C. until ready for use. Protein quantification of the brain homogenate was conducted according to protein assay kit purchased (Bio-Rad).
(^3H)-DAMGO and (^3H)-DAGLE were used as radioligands for the μ and δ receptors, respectively. Radioligand 50 μl, membranes 100 μl, and serially diluted test compound were incubated for 1 hr at 22° C. Nonspecific binding was determined using a 500 fold excess of unlabeled ligand in the presence of tracer and membranes. Free ligand was separated from bound by filtration through Whatman GF/B paper (presoaked in polyethylenimine 1% aqueous solution) and rinsing with ice-cold 50 mM Tris pH 7.4 using a Brandel cell harvester. The filters were dried and radioactivity was counted in a 24 well microplate in the presence of 500 μl scintillant per well. Radioactivity was measured using a Wallace 1450 Microbeta counter. Ki's for the various compounds were determined from the IC50 according to the Cheng and Prusoff equation.

For data set [4] the following is noted: exposed to brushborder kidney membranes.

Each structure is given as a SMILES string.

What is called Ki is the equilibrium dissociation constant of an inhibitor or competing ligand from its target. A high value points to weaker binding. As usually defined, the IC50 is the point on the concentration scale where inhibition reaches its midpoint. Higher therefore signals weaker potency. Take `N=C(N)NCCC[C@@H](NC(=O)[C@@H](N)Cc1ccc(O)cc1)C(=O)N[C@@H](Cc1ccccc1)C(=O)N[C@@H](Cc1ccccc1)C(N)=O` [BCH2687, H-Tyr-D-Arg-Phe-Phe-NH2]: the Ki in data set [1] was found to be 1650 nM; in data set [3] (Binding Assay Kiμ, Table 2), 0.68 nM; in data set [3] (Ki^μ, Table 1) it was 0.88 nM. The IC50 in data set [2] (CPI IC50, Table 2) was determined as 6.7 nM; in data set [2] (GPI(IC50), Table 1), 8.71 nM. Moreover, the “Binding Assay Kiδ Kiμ” value in data set [3] (Table 2, selectivity ratio) is recorded as 2430.
The molecule `C[C@@H](NC(=O)[C@@H](N)Cc1ccc(O)cc1)C(=O)N[C@@H](Cc1ccccc1)C(=O)N[C@@H](Cc1ccccc1)C(N)=O` [BCH1774, H-Tyr-D-Ala-Phe-Phe-NH2] returned a time to degradation in data set [4] of 15 to 30 min.
